Results deposited as PubChem BioAssay AID504764 (Drosophila RNAi Screening Center, 2011).
The screen tested about 22,000 reagents; below is a random part of those that have a named target and a result. Of all reagents, 403 (1.9%) were called active. 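Unnormalised raw counts per well; ratio z-scores behind the hit calls and whether each hit raises or lowers signal are not deposited.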 Entries without a mark were called inactive. The record does not give: the amount of reagent.

- Assay: 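Genes whose knock-down alters Notch-dependent transcription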 (primary screen)
- Cells: Drosophila Kc167 cells
- Reagents: long dsRNA against Drosophila genes
- Timing: about 5 days (4 days dsRNA, then 24 h after transfection)
- Treatment: transfection of constitutively active membrane-tethered Notch lacking the extracellular domain, read 24 h later
- Measured: 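Firefly luciferase from an E(spl)m3 reporter with active Notch, plus control-promoter and uninduced reporter wells for normalisation; unnormalised counts, duplicate wells a and b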
- Direction: induced reporter light, run 1, well a and induced reporter light, run 1, well b: higher = more light from the Notch target reporter with active Notch; control promoter light, run 1, well a and control promoter light, run 1, well b: higher = more light from the viral control promoter (cell number, transfection, viability); uninduced reporter light, run 1, well a: higher = more light from the Notch target reporter without active Notch
- Hit rule: 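Hit if the duplicate-averaged log2 ratio of induced to control-promoter light gives a plate-wise z beyond ±2, or induced to uninduced beyond ±1.8; weak-control or discordant-duplicate wells dropped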
- Meaning of the calls: active = modifier hit (raised or lowered Notch signal); inactive = not a hit

CG15107 (GeneID 59128) [SID104186326] → induced reporter light, run 1, well a: 1.28e5; induced reporter light, run 1, well b: 1.10e5; control promoter light, run 1, well a: 1.10e5; control promoter light, run 1, well b: 1.62e5; uninduced reporter light, run 1, well a: 10000
link (GeneID 36509) [SID104186160] → induced reporter light, run 1, well a: 75270; induced reporter light, run 1, well b: 74355; control promoter light, run 1, well a: 1.08e5; control promoter light, run 1, well b: 1.09e5; uninduced reporter light, run 1, well a: 8155
Orc2 (GeneID 41703) [SID104196568] → induced reporter light, run 1, well a: 1.44e5; induced reporter light, run 1, well b: 1.29e5; control promoter light, run 1, well a: 96700; control promoter light, run 1, well b: 82535; uninduced reporter light, run 1, well a: 9920
ben (GeneID 32358) [SID104200102] → induced reporter light, run 1, well a: 1.27e5 (active); induced reporter light, run 1, well b: 1.24e5; control promoter light, run 1, well a: 3.04e5; control promoter light, run 1, well b: 2.96e5; uninduced reporter light, run 1, well a: 6075
ben (GeneID 32358) [SID104201053] → induced reporter light, run 1, well a: 1.08e5; induced reporter light, run 1, well b: 88095; control promoter light, run 1, well a: 1.32e5; control promoter light, run 1, well b: 1.26e5; uninduced reporter light, run 1, well a: 10450
Fancm (GeneID 42543) [SID104196140] → induced reporter light, run 1, well a: 1.09e5; induced reporter light, run 1, well b: 1.83e5; control promoter light, run 1, well a: 2.15e5; control promoter light, run 1, well b: 2.67e5; uninduced reporter light, run 1, well a: 12625
hoip (GeneID 44173) [SID104183338] → induced reporter light, run 1, well a: 8382; induced reporter light, run 1, well b: 9785; control promoter light, run 1, well a: 9050; control promoter light, run 1, well b: 6290; uninduced reporter light, run 1, well a: 1105
CG32248 (GeneID 317938) [SID104187894] → induced reporter light, run 1, well a: 2.39e5; induced reporter light, run 1, well b: 2.00e5; control promoter light, run 1, well a: 2.59e5; control promoter light, run 1, well b: 2.59e5; uninduced reporter light, run 1, well a: 19320
CG8420 (GeneID 41097) [SID104196210] → induced reporter light, run 1, well a: 1.21e5; induced reporter light, run 1, well b: 1.04e5; control promoter light, run 1, well a: 1.05e5; control promoter light, run 1, well b: 88605; uninduced reporter light, run 1, well a: 9805
okr (GeneID 33507) [SID104180626] → induced reporter light, run 1, well a: 1.57e5; induced reporter light, run 1, well b: 1.65e5; control promoter light, run 1, well a: 1.80e5; control promoter light, run 1, well b: 2.06e5; uninduced reporter light, run 1, well a: 16940
santa-maria (GeneID 34024) [SID104180786] → induced reporter light, run 1, well a: 1.24e5; induced reporter light, run 1, well b: 1.35e5; control promoter light, run 1, well a: 1.85e5; control promoter light, run 1, well b: 1.61e5; uninduced reporter light, run 1, well a: 11605
santa-maria (GeneID 34024) [SID104181972] → induced reporter light, run 1, well a: 1.60e5; induced reporter light, run 1, well b: 1.42e5; control promoter light, run 1, well a: 1.78e5; control promoter light, run 1, well b: 1.79e5; uninduced reporter light, run 1, well a: 15580

Quoted from the listing (2 entries):
hoip (GeneID 44173) [SID104183338] → induced reporter light, run 1, well a: 8382; induced reporter light, run 1, well b: 9785; control promoter light, run 1, well a: 9050; control promoter light, run 1, well b: 6290; uninduced reporter light, run 1, well a: 1105
CG32248 (GeneID 317938) [SID104187894] → induced reporter light, run 1, well a: 2.39e5; induced reporter light, run 1, well b: 2.00e5; control promoter light, run 1, well a: 2.59e5; control promoter light, run 1, well b: 2.59e5; uninduced reporter light, run 1, well a: 19320
